The results in this text go back to patent US20030004092A1.

The target in test [1] is Mxi1 activation domain fusion protein (pJG4-5 plasmid). In words: yeast two-hybrid, lacZ reporter (leu- not determined).
Test [2] addresses Max activation domain fusion protein (pJG4-5 plasmid). The test is described as above.

Results are given in words; binding and its absence hold for the method and conditions named.

B1: LexA/cdr2^65-140 bait construct (protein, not shown: large carriers)
chain: MNEQHAKVYEQLDVTARELEETNQKLVADSKASQQKILSLTETIECLQTNIDHLQSQVEELKSSGQGRRSPGKCDQ
Take B1: the binding entry in test [1] and in test [2] was “no binding” in each case.
